Test [1] concerns the target T1, human VEGF C (human, UniProt P49767 103-227, limits assumed).
T1 construct: also called hVEGFC; hVEGF C
T1 sequence (looked up): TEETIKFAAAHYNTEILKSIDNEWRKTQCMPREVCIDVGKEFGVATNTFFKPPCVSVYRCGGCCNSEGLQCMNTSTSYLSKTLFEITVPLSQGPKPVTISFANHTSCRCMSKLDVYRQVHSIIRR
Description: BLI (ForteBio) and ELISA blocking, as in Examples 3-4.

Test [2] has as its target T1, human VEGF C. Put plainly: phage panning and binding ELISA of clones from the affinity maturation library.

No constants are given. Whether binding was seen depends on the method and setting. Some results given as binding are weak or reduced against the parent protein; the word gives no strength. For some of these results: Sequences can lack the tags named with a protein.

B1: LA49G9.2 humanized anti-VEGF C VHH-Fc antibody (Fc fusion)
chain: EVQLVESGGGLVQPGGSLRLSCAASGSMFSMYAMGWYRQAPGKQRELVAATTSGGSTLYADSVKGRFTISRDNSKNTLYLQMNSLRAEDTAVYYCYTYWRGSDPENYWGQGTQVTVSS
notes: not shown: Fc part (and any hinge or linker) of the dimerized VHH-Fc antibody
On to B1, for which the binding result in the test with human VEGF C [1] is on record as “binds”.

B2: am63G12-5G8-18B9 affinity-matured humanized anti-VEGF C VHH antibody (VHH)
VHH: EVQLVESGGGLVQPGGSLRLSCAASGSSFSPYAMGWYRQAPGKQRELVSATSSGGFTLYADSVKGRFTISRDNSKNTVYLQMNSLRAEDTAVYYCYTYYREYDPEMYWGQGTQVTVSS
notes: also called Am63G2-5G8-18B9; am63G12.1-5G8-18B9
With B2, the binding result with human VEGF C [2] is recorded as “binds”.

B3: am63G12-14B11 affinity-matured humanized anti-VEGF C VHH antibody (VHH)
VHH: EVQLVESGGGLVQPGGSLRLSCAASGSSFSPYAMGWYRQAPGKQRELVSATSEGGFTLYADSVKGRFTISRDNSKNTVYLQMNSLRAEDTAVYYCYMHWRGSDPENYWGQGTQVTVSS
notes: also called am63G12.1-14B11
For B3, the binding entry in the test with human VEGF C [2] was “binds”.

B4: LA63G12.1 humanized anti-VEGF C VHH-Fc antibody (Fc fusion)
chain: EVQLVESGGGLVQPGGSLRLSCAASGSSFSPYAMGWYRQAPGKQRELVSATTSGGSTLYADSVKGRFTISRDNSKNTVYLQMNSLRAEDTAVYYCYMHWRGSDPENYWGQGTQVTVSS
notes: as for B1
Turning to B4, the binding entry with human VEGF C [1] is listed as “binds”.

(Values after patent publication US20250002570A1 (Innovent, published 2025).)
